Literature values, collected in patent US20030178031A1, “Method for cancer pain treatment” (Du Pen, Inc., priority 1999, published 2003).
At least one structure is not confirmed: it was looked up by name or label, or the drawing left a doubt.

Conditions: corticosteroids

**Q.** With `C[C@@H]1C[C@H]2[C@@H]3CCC4=CC(=O)C=C[C@]4(C)[C@@]3(F)[C@@H](O)C[C@]2(C)[C@@]1(O)C(=O)CO` [Dexamethasone] as the compound, how does the Equivalent dosing read?
**A.** Its Equivalent dosing is 1.5 mg.

**Q.** For `C[C@H]1C[C@@H]2[C@H]([C@@H](O)C[C@@]3(C)[C@H]2CC[C@]3(O)C(=O)CO)[C@@]2(C)C=CC(=O)C=C12` [Methylprednisolone], which Equivalent dosing is on record?
**A.** The Equivalent dosing was 8 mg.
